Values from PubChem BioAssay AID1259425 (University of Nebraska Medical Center, 2018)
Screen: 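Seek colon cancer weak points whose silencing resembles KSR1 loss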 (primary screen). System: HCT116 human colon cancer cells. Reagents: siRNA pool against human genes, 50 nM siRNA. Measurement: 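After 50 nM siRNA pool, branched-DNA assay measures six marker transcripts per well, minus blank, normalised to the geometric mean of two housekeeping transcripts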. Reading the numbers: BNIP3L mRNA: higher = more BNIP3L transcript after knockdown; NDRG1 mRNA: higher = more NDRG1 transcript after knockdown.
Here is a random part of about 14,000 deposited reagents. Further read-outs or replicates are left out here. Not given: the time to read-out.

PSMG2 (proteasome assembly chaperone 2) [SID364001577] showed BNIP3L mRNA, set 1 = 0.136; NDRG1 mRNA, set 1 = 0.0746. With knock-down of FAABTP (fatty acid amide binding transmembrane protein) [SID364000937], the screen gave BNIP3L mRNA, set 1 = 0.0892; NDRG1 mRNA, set 1 = 0.129. Against TNFSF13B (TNF superfamily member 13b) [SID363997364], the values are BNIP3L mRNA, set 1 = 0.0892; NDRG1 mRNA, set 1 = 0.104. For ITPA (inosine triphosphatase) [SID364004382], the entry reads BNIP3L mRNA, set 1 = 0.179; NDRG1 mRNA, set 1 = 0.518. After knock-down of NUP88 (nucleoporin 88) [SID363993704] the results were BNIP3L mRNA, set 1 = 0.121; NDRG1 mRNA, set 1 = 0.225. Against GYPA (glycophorin A (MNS blood group)) [SID363993306], the entry reads BNIP3L mRNA, set 1 = 0.0982; NDRG1 mRNA, set 1 = 0.132.

Depletion of LRAT (lecithin retinol acyltransferase) [SID363995702] resulted in: BNIP3L mRNA, set 1 = 0.0741; NDRG1 mRNA, set 1 = 0.206. Silencing of SOX12 (SRY-box transcription factor 12) [SID363997695] gave: BNIP3L mRNA, set 1 = 0.303; NDRG1 mRNA, set 1 = 0.612. For MDM4 (MDM4 regulator of p53) [SID363993573], the entry reads BNIP3L mRNA, set 1 = 0.0968; NDRG1 mRNA, set 1 = 0.157. AIFM1 (apoptosis inducing factor mitochondria associated 1) [SID363995208] scored BNIP3L mRNA, set 1 = 0.155; NDRG1 mRNA, set 1 = 0.186. Knock-down of EIF2S2 (eukaryotic translation initiation factor 2 subunit beta) [SID363994966] came out at: BNIP3L mRNA, set 1 = 0.113; NDRG1 mRNA, set 1 = 2.28.

Reprinted from the entries so far for reference:
FAABTP (fatty acid amide binding transmembrane protein) [SID364000937]: BNIP3L mRNA, set 1 = 0.0892; NDRG1 mRNA, set 1 = 0.129
TNFSF13B (TNF superfamily member 13b) [SID363997364]: BNIP3L mRNA, set 1 = 0.0892; NDRG1 mRNA, set 1 = 0.104

More entries:
Depletion of ACSF2 (acyl-CoA synthetase family member 2) [SID364003277] resulted in: BNIP3L mRNA, set 1 = 0.153; NDRG1 mRNA, set 1 = 0.222. With knock-down of QTRT1 (queuine tRNA-ribosyltransferase catalytic subunit 1) [SID364003548] the results were BNIP3L mRNA, set 1 = 0.0778; NDRG1 mRNA, set 1 = 0.204. CDK5R1 (cyclin dependent kinase 5 regulatory subunit 1) [SID363994944] scored BNIP3L mRNA, set 1 = 0.0632; NDRG1 mRNA, set 1 = 0.342. Silencing of AGFG1 (ArfGAP with FG repeats 1) [SID363995481] resulted in: BNIP3L mRNA, set 1 = 0.881; NDRG1 mRNA, set 1 = 1.21. ACMSD (aminocarboxymuconate semialdehyde decarboxylase) [SID364004548] gave BNIP3L mRNA, set 1 = 0.163; NDRG1 mRNA, set 1 = 0.469. BGN (biglycan) [SID363992932] scored BNIP3L mRNA, set 1 = 0.0536; NDRG1 mRNA, set 1 = 0.172.

After knock-down of PIM1 (Pim-1 proto-oncogene, serine/threonine kinase) [SID363993816], the record shows BNIP3L mRNA, set 1 = 0.111; NDRG1 mRNA, set 1 = 0.16. Knock-down of ALG3 (ALG3 alpha-1,3- mannosyltransferase) [SID363996666] resulted in: BNIP3L mRNA, set 1 = 0.177; NDRG1 mRNA, set 1 = 0.238.
